# The other results are listed elsewhere or left out.
# B1: GST-Gap1 (Streptococcus parasanguinis), A1C3L5 (protein)
# chain: MFYFVPSWYNGQRQWYYDTPWWFRVKNRMTFDDSVNQVKMFLQGQEEIGLMILNYQPQLRYFLHKQNIFGIYYWSFFDDIQNITRSYTKIIHLKDLNWPEGCEFLYSPFAVVVRLKGEIFAIVNYAEDGNLHSVSFQKNGKVTKDYIFDDRGFLSSILYYDIDERPLYQDYLNINGVWQVREFLKKENDPTPILMINDFSDQTFSKKYYNGWEELIKERLAIFQNNHVENEDVFVLASDTQHNQLVSSIFKEHRKIYSFFGNRFNLENLGQDRISINDATFLVVDTEKNEELLRKTCENLVFKSIPIVRLSPFDSRLRLGHSQTVKEQIIYFHIDNIELDELYSVIAIILELMTLHLDIELRIVTFRQDFQLDLLKTWIIDFIKTNHFEDLLFKQISEGENEIEDEGEIELSRIAMECFTNENQIIKCLDTARLVIDLGIEPDLYTQIASISAGIPQINRVSSDYVIHQKNGLVISDISKLSSAIEFYFDGLFNWNEALIYAVRKMSDYTSGKILKQWKGMLKKK
# Legend:
# Assay in all cases: glycan array binding signal (z-score within array); higher = stronger binding
# Conditions in all cases: glycan notation: IUPAC condensed, linker removed
# [1] = target: Neu5Ac(a2-8)Neu5Ac(a2-8)Neu5Ac
# In short: (§1)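 Negative Z-scores can be read as non-binding. The Z-score is calculated within each array and then averaged across arrays of one protein sequence at different concentrations or buffers and across linkers. Arrays, 3228 in all, were curated from the Consortium for Functional Glycomics database and kept only where the protein sequence was available.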
# [2] = target: Neu5Ac(a2-8)Neu5Ac(a2-8)Neu5Ac(a2-3)Gal(b1-4)Glc
# In short: as §1
# [3] = target: Neu5Ac(a2-8)Neu5Ac(a2-8)Neu5Ac(a2-3)[Gal(b1-3)GalNAc(b1-4)]Gal(b1-4)Glc
# In short: as §1
# [4] = target: Neu5Ac(a2-8)Neu5Ac(a2-8)Neu5Ac(a2-3)[GalNAc(b1-4)]Gal(b1-4)Glc
# In short: as §1
# [5] = target: Neu5Ac(a2-8)Neu5Ac(a2-8)Neu5Ac(a2-8)Neu5Ac(a2-3)[GalNAc(b1-4)]Gal(b1-4)Glc
# In short: as §1
# [6] = target: Neu5Ac(a2-8)Neu5Gc(a2-3)Gal(b1-4)GlcNAc
# In short: as §1
# [7] = target: Neu5Ac(b2-6)Gal(b1-4)GlcNAc
# In short: as §1
# [8] = target: Neu5Ac(b2-6)GalNAc
# In short: as §1
# [9] = target: Neu5Ac9Ac(a2-3)Gal(b1-3)GlcNAc
# In short: as §1
# [10] = target: Neu5Ac9Ac(a2-3)Gal(b1-4)GlcNAc
# In short: as §1
# [11] = target: Neu5Ac9Ac(a2-6)Gal(b1-4)GlcNAc
# In short: as §1
# [12] = target: Neu5Gc(a2-3)Gal(b1-3)GlcNAc
# In short: as §1
# [13] = target: Neu5Gc(a2-3)Gal(b1-3)[Fuc(a1-4)]GlcNAc
# In short: as §1
# [14] = target: Neu5Gc(a2-3)Gal(b1-4)Glc
# In short: as §1
# [15] = target: Neu5Gc(a2-3)Gal(b1-4)GlcNAc
# In short: as §1
# [16] = target: Neu5Gc(a2-3)Gal(b1-4)GlcNAc(b1-3)Gal(b1-4)GlcNAc(b1-2)Man(a1-3)[Neu5Gc(a2-3)Gal(b1-4)GlcNAc(b1-3)Gal(b1-4)GlcNAc(b1-2)Man(a1-6)]Man(b1-4)GlcNAc(b1-4)GlcNAc
# In short: as §1
# [17] = target: Neu5Gc(a2-3)Gal(b1-4)[Fuc(a1-3)]GlcNAc
# In short: as §1
# [18] = target: Neu5Gc(a2-6)Gal(b1-4)GlcNAc
# In short: as §1
# [19] = target: Neu5Gc(a2-6)GalNAc
# In short: as §1
# [20] = target: Neu5Gc(a2-8)Neu5Ac(a2-3)Gal(b1-4)GlcNAc
# In short: as §1
# [21] = target: Neu5Gc(a2-8)Neu5Gc(a2-3)Gal(b1-4)GlcNAc
# In short: as §1
# [22] = target: Neu5Gc(a2-8)Neu5Gc(a2-3)Gal(b1-4)GlcNAc(b1-3)Gal(b1-4)GlcNAc
# In short: as §1
# [23] = target: Neu5Gc(a2-8)Neu5Gc(a2-6)Gal(b1-4)GlcNAc
# In short: as §1
# [24] = target: Neu5Gc(b2-6)Gal(b1-4)GlcNAc
# In short: as §1
binder,measurement,setting,value
B1,glycan array binding signal (z-score),[1],-0.489
same,glycan array binding signal (z-score),[2],-0.375
same,glycan array binding signal (z-score),[3],-0.581
same,glycan array binding signal (z-score),[4],0.044
same,glycan array binding signal (z-score),[5],-1.06
same,glycan array binding signal (z-score),[6],-1.39
same,glycan array binding signal (z-score),[7],-0.254
same,glycan array binding signal (z-score),[8],-0.088
same,glycan array binding signal (z-score),[9],0.283
same,glycan array binding signal (z-score),[10],-0.629
same,glycan array binding signal (z-score),[11],-0.139
same,glycan array binding signal (z-score),[12],0.544
same,glycan array binding signal (z-score),[13],-0.052
same,glycan array binding signal (z-score),[14],-0.763
same,glycan array binding signal (z-score),[15],-0.003
same,glycan array binding signal (z-score),[16],-0.393
same,glycan array binding signal (z-score),[17],0
same,glycan array binding signal (z-score),[18],0.487
same,glycan array binding signal (z-score),[19],0.105
same,glycan array binding signal (z-score),[20],-0.655
same,glycan array binding signal (z-score),[21],-1.05
same,glycan array binding signal (z-score),[22],-0.512
same,glycan array binding signal (z-score),[23],-0.225
same,glycan array binding signal (z-score),[24],0.161

# 5 successive records from above:
binder,measurement,setting,value
B1,glycan array binding signal (z-score),[14],-0.763
same,glycan array binding signal (z-score),[15],-0.003
same,glycan array binding signal (z-score),[16],-0.393
same,glycan array binding signal (z-score),[17],0
same,glycan array binding signal (z-score),[18],0.487

# — the supplement of paper PMC8728848
